Laboratory results: patent publication US7875607B2, “7,8-bicycloakyl-chroman derivatives” (Ampere Life Sciences, Inc., priority 2004, dated 2011)
Some results were stated once for a whole list of compounds, not compound by compound. For some of these results: At least one structure is not confirmed: it was looked up by name or label, or the drawing left a doubt.

What was measured:
Male Wistar rats, MCAO = experiment: Rat middle cerebral artery occlusion (MCAO) model of cerebral ischemia; assay type: in vivo; conditions: doses in the range of 10 μg/kg to 40 mg/kg; intravenous osmotic pump implantation and IV infusion
[1] = system: IL-1beta production in mouse microglial cell line; experiment: Interleukin-1β microglial cell assay; assay type: cell-based; conditions: LPS 10 μg/ml and IFN gamma 10 ng/ml, 24 hours; read-out: EC50, inhibition of IL-1beta production
Description: This assay measures the release of IL-1β from a mouse microglial cell line following an inflammatory challenge with LPS and interferon-gamma. The ability of test articles to inhibit microglial cell activation and IL-1β release is determined by co-incubation of the test article with the inflammatory challenge.
Mouse microglial cells were seeded in poly-D-lysine coated 96-well plates at a density of 10,000 cells/well and allowed to attach for 24 hours. Cells were stimulated by addition of LPS (10 μg/ml) and IFN gamma (10 ng/ml) in the presence or absence of test article. […]
Viability of mouse microglial cells after exposure to the test article was determined using a fluorescent viability dye, Cell Tracker Green. […] 100 μl fresh HBSS was added to each well and the plate was read on a Fluoroskan plate reader using an excitation wavelength of 485 nm and an emission wavelength of 538 nm. […]
• The Costar EIA Hi-binding plate was coated with capture antibody at 4 μg/ml. […] Each well was filled to the top, dispensed, and any remaining buffer was removed by inverting the plate and gently blotting against clean paper towels. • Non-specific binding sites were blocked by adding 300 μl of Blocking Buffer to each well, and after sealing incubating for at least 1 hour at room temperature. • After washing the plate was now ready for the samples. […]

[2] = system: dopaminergic neuronal cell line; experiment: High glutamate-induced oxidative stress assay (HGOS); assay type: cell-based, mouse; conditions: 30 mM glutamate, 16 hrs; read-out: EC50, protection against HGOS cell injury and cell death
Description: Protection against redox stress can be further evaluated in cell culture using high glutamate induced oxidative stress (HGOS) in mouse dopaminergic cell lines. The cytotoxic effect of glutamate is not due to excitotoxicity, as this cell line is devoid of inotropic glutamate receptors. Rather, the glutamate-induced toxicity of dopaminergic cells is associated with an inhibition of cystine transport which subsequently leads to depletion of intracellular glutathione (GSH) levels (Murphy T. H., et al. Neuron 2, 1547-1558, 1989), activation of neuronal 12-lipoxygenase (Li, Y. et al., Neuron 19, 453-463, 1997), increased ROS production (Tan S. et al., J. Cell Biol. 141, 1423-1432, 1998) and elevated intracellular Ca^2+ (Li, Y. et al., see supra). Some molecules were measured for their ability to protect cells against glutamate-induced stress and the assay is detailed in Examples.
This procedure was used to induce high glutamate-induced oxidative stress (HGOS) in a dopaminergic neuronal cell line. Using this assay the potency and efficacy of test articles against HGOS neuronal cell injury and cell death was established in a high throughput manner.
The cells were seeded into 96-well plates at a density of 2000 per well and left to grow for 72 hours in a 33° C. incubator with 5% CO2 in air atmosphere. The passage number of the cells for each assay experiment were no later than p11 in order to minimize experimental variation.
All compounds were dissolved in DMEM-No Glu containing 1 mM glucose, 30 mM glutamate and 1×Pen/Strep. DMEM-No Glu with 1 mM glucose and 1×P/S was used as the negative control, DMEM-No Glucose with 1 mM glucose, […] was used as a positive control and 100 μM Glutathione was added to the positive control as a standard. […]
The Beckman Biomek workstations were used to load the compounds and controls from the mother plates onto the cell plates that were prewashed with HBSS under sterile conditions. […] After washing the cells twice with prewarmed 1×HBSS, the plates were read with the 485 excitation; 538 emission filter pair on a Fluoroskan.

[3] = system: ELAM (E-selectin) expression in endothelial cells; experiment: Cell-ELAM assay; assay type: cell-based; conditions: 10 μg/ml LPS and 100 pg/ml IL-1β, 6 hours
Description: In vitro cell-based assays for inflammation are well known in the art, for example e-selectin (also named Endothelial Leukocyte Adhesion Molecule or ELAM) or C-reactive protein (CRP). The ELAM assay measures in vitro activity of the test compounds in reducing expression of ELAM in activated endothelial cells. Briefly, endothelial cells are […] by adding known activators such as lipopolysaccharides, TNF or IL-1, alone or in some combination. Activated cells produce ELAM, which can be measured using, for example, an E-selectin monoclonal antibody-based ELISA assay. Similarly the CRP assay measures in vitro activity of test compounds in reducing expression of CRP in Human Hep3B epithelial cells. The activated cells produce CRP, which can be measured with a CRP ELISA assay. […]
Endothelial cells may be selected from any of a number of sources and cultured according to methods known in the art; including, for example, coronary artery endothelial cells, human brain microvascular endothelial cells (HBMEC; Hess, D. C., et al., Neurosci. Lett. 213(1): 37-40, 1996), or lung endothelial cells. […] Wells were allowed to develop for 35 minutes, before measurement at 402 nm in a Fluoroskan® Reader with shake program for 10 seconds. Positive results were recorded as a decrease in ELAM concentration in tested wells, as compared to control wells.

| Compound | reduction in total infarct volume (Male Wistar rats, MCAO) | EC50 [2] [µM] | also measured |
| --- | --- | --- | --- |
| CC1(CCC(=O)O)CCc2cc(O)c3c(c2O1)C1CCC3CC1 (stereo not shown) [3-(6-Hydroxy-2-methyl-3,4,7,8,9,10-hexahydro-7,10-ethano-2H-benzo[h]chromen-2-yl)-propionic acid] | at least 30% | – | – |
| CC1(C)CCc2cc(O)c3c(c2O1)C1CCC3C1 (stereo not shown) [2,2-Dimethyl-3,4,7,8,9,10-hexahydro-7,10-methano-2H-benzo[h]chromen-6-ol] | at least 30% | – | – |
| COC(=O)CCC1(C)C=Cc2c3c(c4c(c2O1)C1CCC4C1)OC(C)(CCC(=O)OC)C=C3 (stereo not shown) [3-[7-(2-Methoxycarbonyl-ethyl)-2,7-dimethyl-2,7,9,10,11,12-hexahydro-1,8-dioxa-0-12-methano-triphenylen-2-yl]-propionic acid methyl ester] | – | – | EC50 [1]: ≤ 20 µM |
| (6-Hydroxy-2,2-dimethyl-3,4,7,8,9,10-hexahydro-7,10-methano-2H-benzo[h]chromen-5-ylmethyl)-1-hydroxyurea | – | ≤ 1 | – |
| CC1(C)CC2CC(C)(C1)Oc1c2cc(O)c2c1C1CCC2C1 (stereo not shown) [2,6:9,12-Dimethano-9,10,11,12-tetrahydro-2,4,4-trimethylnaphtho[1,2-b]oxocan-8-ol] | – | ≤ 1 | – |
| CC1(CCC(=O)O)CCc2cc(O)c3c(c2O1)C1CCC3C1 (stereo not shown) [3-(6-Hydroxy-2-methyl-3,4,7,8,9,10-hexahydro-7,10-methano-2H-benzo[h]chromen-2-yl)-propionic Acid] | at least 30% | – | – |
| CC1(C)CCc2cc(O)c3c(c2O1)C1CCC3CC1 [2,2-Dimethyl-3,4,7,8,9,10-hexahydro-7,10-ethano-2H-benzo[h]chromen-6-ol] | at least 30% | – | – |
| CC12CCCC(C1)c1cc(O)c3c(c1O2)C1CCC3C1 (stereo not shown) [2,6:9,12-Dimethano-9,10,11,12-tetrahydro-2-methylnaphtho[1,2-b]oxocan-8-ol] | – | ≤ 1 | EC50 [3]: ≤ 30 µM |
| COC(=O)CCC1(C)CCc2cc(O)c3c(c2O1)C1CCC3C1 (stereo not shown) [3-(6-Hydroxy-2-methyl-3,4,7,8,9,10-hexahydro-7,10-methano-2H-benzo[h]chromen-2-yl)-propionic Acid Methyl Ester] | at least 30% | – | – |
